Common to all, as to assay: pull-down; 30 µg purified GST-tagged EIF1AX protein on glutathione agarose beads, 500 mM NaCl; 25 µg His-DDX21 purified under non-denaturing or denaturing conditions, 2 h at 4 °C; washed with 500 mM NaCl; western blot; both purified
A general note: Immunoblotting shows a protein as a band on a membrane.

Assay [1] addresses T1, GST-tagged EIF1AX RBP fragment (Homo sapiens (Human), UniProt P47813).
T1 chain: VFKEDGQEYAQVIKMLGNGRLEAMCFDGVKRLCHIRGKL

In assay [2] the target is T2, GST-tagged EIF1AX IDR2 fragment (Homo sapiens (Human), UniProt P47813).
T2 chain: DIGDDDEDIDDI

For assay [3], the target named is T3, GST-tagged EIF1AX IDR1 fragment (Homo sapiens (Human), UniProt P47813).
T3 chain: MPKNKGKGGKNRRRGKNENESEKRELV

Results are given in words; binding and its absence hold for the method and conditions named. Some binding calls cover weakened binding; strength is not graded here. Sequences can lack the tags named with a protein.

B1: His-DDX21 (protein)
chain: MPGKLRSDAGLESDTAMKKGETLRKQTEEKEKKEKPKSDKTEEIAEEEETVFPKAKQVKKKAEPSEVDMNSPKSKKAKKKEEPSQNDISPKTKSLRKKKEPIEKKVVSSKTKKVTKNEEPSEEEIDAPKPKKMKKEKEMNGETREKSPKLKNGFPHPEPDCNPSEAASEESNSEIEQEIPVEQKEGAFSNFPISEETIKLLKGRGVTFLFPIQAKTFHHVYSGKDLIAQARTGTGKTFSFAIPLIEKLHGELQDRKRGRAPQVLVLAPTRELANQVSKDFSDITKKLSVACFYGGTPYGGQFERMRNGIDILVGTPGRIKDHIQNGKLDLTKLKHVVLDEVDQMLDMGFADQVEEILSVAYKKDSEDNPQTLLFSATCPHWVFNVAKKYMKSTYEQVDLIGKKTQKTAITVEHLAIKCHWTQRAAVIGDVIRVYSGHQGRTIIFCETKKEAQELSQNSAIKQDAQSLHGDIPQKQREITLKGFRNGSFGVLVATNVAARGLDIPEVDLVIQSSPPKDVESYIHRSGRTGRAGRTGVCICFYQHKEEYQLVQVEQKAGIKFKRIGVPSATEIIKASSKDAIRLLDSVPPTAISHFKQSAEKLIEEKGAVEALAAALAHISGATSVDQRSLINSNVGFVTMILQCSIEMPNISYAWKELKEQLGEEIDSKVKGMVFLKGKLGVCFDVPTASVTEIQEKWHDSRRWQLSVATEQPELEGPREGYGGFRGQREGSRGFRGQRDGNRRFRGQREGSRGPRGQRSGGGNKSNRSQNKGQKRSFSKAFGQ
As to B1, the figures for the binding result in assay [1], in assay [2] and in assay [3] were “binds”, “no binding (tested: 25 µg His-DDX21 on 30 µg GST protein)” and “no binding (tested: 25 µg His-DDX21 on 30 µg GST protein)”, respectively.

(Values after article PMC12948210 (2025).)
